Laboratory results from patent publication US11592453B2, “Personalized metabolomic profiling of specialized pro-resolving mediators” (THE BRIGHAM AND WOMEN'S HOSPITAL, INC., priority 2016, dated 2023).

Key:
[1] = tested on: prostaglandin, thromboxane and SPM production in human whole blood; test: LM metabololipidomics of human whole blood during coagulation in the presence of indomethacin; assay type: cell-based; conditions: mean of six donors; for LM concentration Avg, Indomethacin t = 0 h: 0 h after coagulation in the presence of indomethacin; for LM concentration Avg, Indomethacin t = 0.25 h: 0.25 h after coagulation in the presence of indomethacin; for LM concentration Avg, Indomethacin t = 0.5 h: 0.5 h after coagulation in the presence of indomethacin; for LM concentration Avg, Indomethacin t = 1 h: 1 h after coagulation in the presence of indomethacin; for LM concentration Avg, Indomethacin t = 3 h: 3 h after coagulation in the presence of indomethacin; for LM concentration Avg, Indomethacin t = 6 h: 6 h after coagulation in the presence of indomethacin; for LM concentration Avg, Indomethacin t = 24 h: 24 h after coagulation in the presence of indomethacin
Experimental: FIG. 8 illustrates SPM formation in human blood clots being regulated by lipoxygenase activity. (A and B) Freshly drawn human peripheral blood (4 ml) was placed in silicone-coated tubes at 37° C. for 24 hours and coagulation was stopped by snap-freezing before LC-MS/MS analysis was performed. Concentrations of total SPMs, prostaglandins, and thromboxanes after 24 hours of coagulation (Coag.) in the presence or absence of (A) 100 μM indomethacin (Indo.) (n=six individual donors), (B) 500 nM celecoxib (CLX) or 20 μM BAI (n=three individual donors). Data are means±SEM; *P<0.05 for +BAI vs. Coag; ****P<0.0001 for +Indo vs. Coag. using ratio t-test.
Human whole blood was transferred in 4-ml aliquots to negatively charged, silicone-coated 10-ml tubes (BD) without anticoagulant. For experiments with heparin, the heparinized blood was placed in 15-ml polypropylene tubes before incubation at 37° C. For LM profiling at designated times, all samples were immediately subjected to a workup procedure by which whole blood was snap-frozen in a dry ice/isopropanol bath and were returned to room temperature (×3 cycles) before undergoing centrifugation at 100,000 g at 4° C. Supernatants (and clots for select experiments; see FIG. 6) were collected and were subjected to LC-MS/MS LM metabololipidomics.
To obtain a complete blood profile of eicosanoids and SPMs each sample was subjected to a procedure involving snap-freezing of whole blood that was then thawed to room temperature three times and centrifuged at 100,000 g at 4 °C for 30 min before undergoing solid-phase extraction (SPE). Internal standards including d8-5-HETE, d5-RvD2, d5-LXA4, d4-LTB4, and d4-PGE2 (500 pg each; Cayman Chemical) were added together with four volumes of methanol to facilitate protein precipitation. […] Before elution, LM bound to the SPE matrix were neutralized with ddH2O. Methyl formate fractions from the SPE were brought to dryness under a gentle stream of nitrogen and resuspended in 1:1 methanol:water before injection into a liquid chromatography-tandem mass spectrometry system consisting of a QTrap 5500 (AB Sciex) equipped with a Shimadzu LC-20AD HPLC (Tokyo, Japan). A Poroshell 120 EC-18 column (100 mm×4.6 mm×2.7 μm; Agilent Technologies) was kept in a column oven maintained at 50° C., and lipid mediators (LMs) were eluted in a gradient of methanol/water/acetic acid from 55:45:0.01 (v/v/v) to 100:0:0.01 at a flow rate of 0.5 ml/min. To monitor and quantify the amounts of lipid mediators of interest, multiple reaction monitoring (MRM) was used with MS/MS matching signature ion fragments for each molecule (at least six diagnostic ions; ˜0.1 pg limits of detection as described previously (15)]. PCA was performed as described previously (15) with SIMCA software, version 13.0.3. Calibration curves were obtained daily from authentic (nonsynthetic) standards and matrix suppression for each targeted LM in snap-frozen blood, and supernatants determined and used for recovery and quantitation.

[2] = Murine peritonitis and hemorrhagic exudates, LM profiling; assay type: in vivo; conditions: mice, zymosan plus thrombin i.p., 4 hours

SMILES | LM concentration Avg, Indomethacin t = 0 h [1] | LM concentration Avg, Indomethacin t = 0.25 h [1] | LM concentration Avg, Indomethacin t = 0.5 h [1] | LM concentration Avg, Indomethacin t = 1 h [1] | LM concentration Avg, Indomethacin t = 3 h [1] | LM concentration Avg, Indomethacin t = 6 h [1] | LM concentration Avg, Indomethacin t = 24 h [1] | abundance in hemorrhagic exudates compared to sham saline alone [2]
CCCCC[C@@H](O)/C=C/C=C\C=C\C=C\[C@@H](O)[C@@H](O)CCCC(=O)O [AT-LX44, 15-epi-lipoxin A4 (aspirin-triggered lipoxin A4)] | 1.3 pg/mL | 1.7 pg/mL | 2.7 pg/mL | 2.2 pg/mL | 4.0 pg/mL | 5.4 pg/mL | 11.4 pg/mL | 
CCCCC/C=C\C[C@@H](O)/C=C/C=C/C=C\[C@@H](O)CCCC(=O)O [LTB4, leukotriene B4, (5S, 12R-dihydroxy-eicosa-6Z, 8E, 10E, 14Z-tetraenoic acid)] | 1.2 pg/mL | 6.8 pg/mL | 47.8 pg/mL | 75.5 pg/mL | 110.2 pg/mL | 95.1 pg/mL | 51.0 pg/mL | 
CCCCC[C@H](O)/C=C/C=C\C=C\C=C\[C@@H](O)[C@@H](O)CCCC(=O)O [LXA4, lipoxin A4 (5S, 6R, 15S-trihydroxy-eicosa-7E, 9E, 11Z, 13E-tetraenoic acid)] | — ((—) denotes concentrations <0.1 pg/ml) | — ((—) denotes concentrations <0.1 pg/ml) | — ((—) denotes concentrations <0.1 pg/ml) | — ((—) denotes concentrations <0.1 pg/ml) | — ((—) denotes concentrations <0.1 pg/ml) | — ((—) denotes concentrations <0.1 pg/ml) | — ((—) denotes concentrations <0.1 pg/ml) | 
CCCCC[C@H](O)[C@H](O)/C=C/C=C/C=C\C=C\[C@@H](O)CCCC(=O)O [LXB4, lipoxin B4: (5S, 14R, 15S-trihydroxy-eicosa-6E, 8Z, 10E, 12E-tetraenoic acid)] | 0.5 pg/mL | 1.0 pg/mL | 0.4 pg/mL | 0.6 pg/mL | 0.7 pg/mL | 0.8 pg/mL | 2.0 pg/mL | statistically significantly increased in abundance
CC/C=C\C[C@H](O)\C=C/C=C/C=C/[C@H](O)C/C=C\C/C=C\CCC(=O)O [PD1, protectin D1 (10R, 17S-dihydroxy-docosa-4Z, 7Z, 11E, 13E, 15Z, 19Z-hexaenoic acid)] | 0.5 pg/mL | 0.5 pg/mL | 0.6 pg/mL | 0.9 pg/mL | 0.6 pg/mL | 0.8 pg/mL | 1.6 pg/mL | 
CCCCC[C@H](O)/C=C/[C@H]1C(=O)C[C@H](O)[C@@H]1C/C=C\CCCC(=O)O [PGD2, 11-oxo-9α, 15S-dihydroxy-prosta-5Z, 13E-dien-1-oic acid] | 0.5 pg/mL | 0.4 pg/mL | 0.7 pg/mL | 0.7 pg/mL | 3.0 pg/mL | 5.3 pg/mL | 7.1 pg/mL | 
CCCCC[C@H](O)/C=C/[C@H]1[C@H](O)CC(=O)[C@@H]1C/C=C\CCCC(=O)O [PGE2, 9-oxo-11α, 15S-dihydroxy-prosta-5Z, 13E-dien-1-oic acid] | 0.3 pg/mL | 0.6 pg/mL | 0.7 pg/mL | 0.9 pg/mL | 1.2 pg/mL | 1.8 pg/mL | 2.6 pg/mL | 
CCCCC[C@H](O)/C=C/[C@@H]1[C@@H](C/C=C\CCCC(=O)O)[C@@H](O)C[C@H]1O [PGF2a, 9α, 11α, 15S-trihydroxy-prosta-5Z, 13E-dienoic acid] | — ((—) denotes concentrations <0.1 pg/ml) | 0.3 pg/mL | 0.3 pg/mL | 0.2 pg/mL | 0.5 pg/mL | 0.7 pg/mL | 1.6 pg/mL | 
CC/C=C\C[C@H](O)[C@H](O)/C=C/C=C/C=C\C=C\[C@@H](O)C/C=C\CCC(=O)O [RvD2, Resolvin D2 (7S, 16R, 17S-trihydroxy-docosa-4Z, 8E, 10Z, 12E, 14E, 19Z-hexaenoic acid)] | — ((—) denotes concentrations <0.1 pg/ml) | — ((—) denotes concentrations <0.1 pg/ml) | — ((—) denotes concentrations <0.1 pg/ml) | — ((—) denotes concentrations <0.1 pg/ml) | — ((—) denotes concentrations <0.1 pg/ml) | — ((—) denotes concentrations <0.1 pg/ml) | — ((—) denotes concentrations <0.1 pg/ml) | 
CC[C@@H](O)/C=C/C=C\C/C=C\C/C=C\C=C\[C@@H](O)CCCC(=O)O [RvE2, Resolvin E2 (5S, 18R-dihydroxy-eicosa-6E, 8Z, 11Z, 14Z, 16E-pentaenoic acid)] | — ((—) denotes concentrations <0.1 pg/ml) | — ((—) denotes concentrations <0.1 pg/ml) | — ((—) denotes concentrations <0.1 pg/ml) | — ((—) denotes concentrations <0.1 pg/ml) | — ((—) denotes concentrations <0.1 pg/ml) | — ((—) denotes concentrations <0.1 pg/ml) | — ((—) denotes concentrations <0.1 pg/ml) | 
CC[C@@H](O)[C@H](O)/C=C/C=C/C=C\C/C=C\C/C=C\CCCC(=O)O [RvE3, Resolvin E3 (17R,18R-dihydroxy-eicosa-5Z, 8Z, 11Z, 13E, 15E-pentaenoic acid)] | — ((—) denotes concentrations <0.1 pg/ml) | — ((—) denotes concentrations <0.1 pg/ml) | — ((—) denotes concentrations <0.1 pg/ml) | — ((—) denotes concentrations <0.1 pg/ml) | — ((—) denotes concentrations <0.1 pg/ml) | — ((—) denotes concentrations <0.1 pg/ml) | — ((—) denotes concentrations <0.1 pg/ml) | 
CCCCC[C@H](O)/C=C/[C@H]1OC(O)C[C@H](O)[C@@H]1C/C=C\CCCC(=O)O (stereo partly drawn) [TXB2, 9α, 11, 15S-trihydroxy-thromba-5Z, 13E-dien-1-oic acid] | 1.4 pg/mL | 0.5 pg/mL | 1.0 pg/mL | 2.9 pg/mL | 4.3 pg/mL | 2.6 pg/mL | 5.1 pg/mL | 

Some entries repeat one wording, which the source may state once for all of them.
